The target of assay [1] is Merlin^FLAG S13D (doxycycline-inducible, used for FLAG immunoprecipitation) (human) (UniProt P35240). Briefly: co-IP; FLAG antibody-bound beads with M10G cell lysate (doxycycline-inducible Merlin^FLAG, 1μg/ml), 4°C for 4 hours, 4 washes in lysis buffer; immunoblot for β-catenin. For orientation: A western blot detects proteins with antibodies after separation by electrophoresis.

The chains behind the UniProt entries cited, without tags or fusion partners. Where a name states a change or a piece, a line headed by the entry shows the natural chain unless it says otherwise.
UniProt P35240: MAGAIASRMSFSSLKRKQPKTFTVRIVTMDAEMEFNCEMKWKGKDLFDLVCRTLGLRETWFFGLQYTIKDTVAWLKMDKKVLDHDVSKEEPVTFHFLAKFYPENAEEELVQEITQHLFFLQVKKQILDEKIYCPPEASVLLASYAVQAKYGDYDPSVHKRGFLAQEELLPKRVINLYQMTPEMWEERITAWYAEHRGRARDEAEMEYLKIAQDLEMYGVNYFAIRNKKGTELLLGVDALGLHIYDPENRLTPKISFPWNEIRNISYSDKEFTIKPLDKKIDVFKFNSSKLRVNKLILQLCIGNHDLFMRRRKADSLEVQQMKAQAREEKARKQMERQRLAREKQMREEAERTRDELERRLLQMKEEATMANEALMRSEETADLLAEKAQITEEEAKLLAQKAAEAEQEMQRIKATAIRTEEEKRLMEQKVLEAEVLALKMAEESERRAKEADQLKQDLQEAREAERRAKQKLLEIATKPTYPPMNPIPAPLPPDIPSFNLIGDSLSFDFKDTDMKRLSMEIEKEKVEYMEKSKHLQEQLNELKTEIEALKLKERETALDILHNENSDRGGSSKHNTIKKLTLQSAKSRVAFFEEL
UniProt P35222: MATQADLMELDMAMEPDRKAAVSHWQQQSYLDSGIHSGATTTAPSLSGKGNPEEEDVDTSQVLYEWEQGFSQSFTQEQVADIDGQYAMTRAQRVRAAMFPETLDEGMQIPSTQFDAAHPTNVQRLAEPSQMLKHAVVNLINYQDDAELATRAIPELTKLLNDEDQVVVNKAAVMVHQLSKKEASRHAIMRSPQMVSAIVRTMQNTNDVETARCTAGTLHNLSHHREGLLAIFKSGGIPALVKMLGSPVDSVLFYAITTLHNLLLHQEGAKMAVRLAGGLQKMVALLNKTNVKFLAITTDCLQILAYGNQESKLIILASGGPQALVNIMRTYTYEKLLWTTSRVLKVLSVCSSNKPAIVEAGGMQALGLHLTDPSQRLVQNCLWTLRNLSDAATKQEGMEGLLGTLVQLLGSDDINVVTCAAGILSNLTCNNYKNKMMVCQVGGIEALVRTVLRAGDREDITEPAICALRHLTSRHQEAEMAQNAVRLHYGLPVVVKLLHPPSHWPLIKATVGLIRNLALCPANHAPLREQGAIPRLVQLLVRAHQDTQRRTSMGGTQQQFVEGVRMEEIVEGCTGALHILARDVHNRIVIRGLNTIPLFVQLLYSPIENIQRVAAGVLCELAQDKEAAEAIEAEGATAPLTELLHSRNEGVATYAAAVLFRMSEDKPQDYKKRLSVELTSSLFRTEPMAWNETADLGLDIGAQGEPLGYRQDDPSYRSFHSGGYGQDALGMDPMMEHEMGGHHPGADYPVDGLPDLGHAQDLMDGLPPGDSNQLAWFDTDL

The target of assay [2] is Merlin^FLAG S13A (doxycycline-inducible, used for FLAG immunoprecipitation) (human) (UniProt P35240). Described as above.

Results are given in words; binding and its absence hold for the method and conditions named. Binding seen in cells or lysates may run through a third protein. Some entries that bind do so weakly or less than the wild type.

With β-catenin (from UniProt P35222 1-781), the results for the binding entry in assay [1] and in assay [2] were “binds” and “no binding”, respectively.
